The values below are quoted from earlier work in paper PMC3597608, “Yellow Fluorescent Protein-Based Assay to Measure GABAA Channel Activation and Allosteric Modulation in CHO-K1 Cells” (PLoS ONE, 2013).

The subject of the data set is α2β3γ2 ion channel subtype. More on the design: method as in PMID 19090692. The following applies: read-out: GABA EC50; HEK 293 cells, membrane potential assay; cited from earlier work.

With `NCCCC(=O)O` [GABA, γ-aminobutyric acid], the EC50 is 2200 nM.

In general, EC50 refers to the concentration that produces a half-maximal response.
